Measured values published in the supplement of paper PMC12067093, “Discovery and optimisation of a covalent ligand for TRIM25 and its application to targeted protein ubiquitination” (Chemical Science, 2025).
This is one part of the list.

The chains behind the UniProt entries cited, without tags or fusion partners. Where a name states a change or a piece, a line headed by the entry shows the natural chain unless it says otherwise.
UniProt P53384: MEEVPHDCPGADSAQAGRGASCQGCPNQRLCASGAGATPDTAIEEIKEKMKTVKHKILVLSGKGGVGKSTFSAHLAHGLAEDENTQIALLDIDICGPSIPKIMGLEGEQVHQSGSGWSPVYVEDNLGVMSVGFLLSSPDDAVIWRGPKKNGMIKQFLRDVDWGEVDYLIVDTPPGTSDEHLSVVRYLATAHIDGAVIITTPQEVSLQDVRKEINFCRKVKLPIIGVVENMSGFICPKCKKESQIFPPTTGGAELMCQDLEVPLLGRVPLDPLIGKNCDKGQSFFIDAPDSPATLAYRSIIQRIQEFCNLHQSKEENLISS
UniProt Q9BVL2: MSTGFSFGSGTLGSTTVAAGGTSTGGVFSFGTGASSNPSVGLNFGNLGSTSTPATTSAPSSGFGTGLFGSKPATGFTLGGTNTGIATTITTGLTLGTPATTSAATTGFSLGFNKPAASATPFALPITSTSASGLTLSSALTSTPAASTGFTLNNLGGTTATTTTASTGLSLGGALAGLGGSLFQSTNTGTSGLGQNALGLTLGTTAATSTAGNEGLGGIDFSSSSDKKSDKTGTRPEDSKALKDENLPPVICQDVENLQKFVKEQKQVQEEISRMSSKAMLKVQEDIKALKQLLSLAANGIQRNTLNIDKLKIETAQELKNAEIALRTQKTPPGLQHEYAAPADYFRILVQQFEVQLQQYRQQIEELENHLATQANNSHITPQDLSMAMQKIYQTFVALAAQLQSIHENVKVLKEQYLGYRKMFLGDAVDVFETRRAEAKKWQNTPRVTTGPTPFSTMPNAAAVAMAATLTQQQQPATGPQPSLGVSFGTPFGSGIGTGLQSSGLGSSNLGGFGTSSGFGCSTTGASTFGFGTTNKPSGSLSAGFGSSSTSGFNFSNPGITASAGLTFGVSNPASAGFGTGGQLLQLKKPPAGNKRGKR
UniProt Q8TEM1: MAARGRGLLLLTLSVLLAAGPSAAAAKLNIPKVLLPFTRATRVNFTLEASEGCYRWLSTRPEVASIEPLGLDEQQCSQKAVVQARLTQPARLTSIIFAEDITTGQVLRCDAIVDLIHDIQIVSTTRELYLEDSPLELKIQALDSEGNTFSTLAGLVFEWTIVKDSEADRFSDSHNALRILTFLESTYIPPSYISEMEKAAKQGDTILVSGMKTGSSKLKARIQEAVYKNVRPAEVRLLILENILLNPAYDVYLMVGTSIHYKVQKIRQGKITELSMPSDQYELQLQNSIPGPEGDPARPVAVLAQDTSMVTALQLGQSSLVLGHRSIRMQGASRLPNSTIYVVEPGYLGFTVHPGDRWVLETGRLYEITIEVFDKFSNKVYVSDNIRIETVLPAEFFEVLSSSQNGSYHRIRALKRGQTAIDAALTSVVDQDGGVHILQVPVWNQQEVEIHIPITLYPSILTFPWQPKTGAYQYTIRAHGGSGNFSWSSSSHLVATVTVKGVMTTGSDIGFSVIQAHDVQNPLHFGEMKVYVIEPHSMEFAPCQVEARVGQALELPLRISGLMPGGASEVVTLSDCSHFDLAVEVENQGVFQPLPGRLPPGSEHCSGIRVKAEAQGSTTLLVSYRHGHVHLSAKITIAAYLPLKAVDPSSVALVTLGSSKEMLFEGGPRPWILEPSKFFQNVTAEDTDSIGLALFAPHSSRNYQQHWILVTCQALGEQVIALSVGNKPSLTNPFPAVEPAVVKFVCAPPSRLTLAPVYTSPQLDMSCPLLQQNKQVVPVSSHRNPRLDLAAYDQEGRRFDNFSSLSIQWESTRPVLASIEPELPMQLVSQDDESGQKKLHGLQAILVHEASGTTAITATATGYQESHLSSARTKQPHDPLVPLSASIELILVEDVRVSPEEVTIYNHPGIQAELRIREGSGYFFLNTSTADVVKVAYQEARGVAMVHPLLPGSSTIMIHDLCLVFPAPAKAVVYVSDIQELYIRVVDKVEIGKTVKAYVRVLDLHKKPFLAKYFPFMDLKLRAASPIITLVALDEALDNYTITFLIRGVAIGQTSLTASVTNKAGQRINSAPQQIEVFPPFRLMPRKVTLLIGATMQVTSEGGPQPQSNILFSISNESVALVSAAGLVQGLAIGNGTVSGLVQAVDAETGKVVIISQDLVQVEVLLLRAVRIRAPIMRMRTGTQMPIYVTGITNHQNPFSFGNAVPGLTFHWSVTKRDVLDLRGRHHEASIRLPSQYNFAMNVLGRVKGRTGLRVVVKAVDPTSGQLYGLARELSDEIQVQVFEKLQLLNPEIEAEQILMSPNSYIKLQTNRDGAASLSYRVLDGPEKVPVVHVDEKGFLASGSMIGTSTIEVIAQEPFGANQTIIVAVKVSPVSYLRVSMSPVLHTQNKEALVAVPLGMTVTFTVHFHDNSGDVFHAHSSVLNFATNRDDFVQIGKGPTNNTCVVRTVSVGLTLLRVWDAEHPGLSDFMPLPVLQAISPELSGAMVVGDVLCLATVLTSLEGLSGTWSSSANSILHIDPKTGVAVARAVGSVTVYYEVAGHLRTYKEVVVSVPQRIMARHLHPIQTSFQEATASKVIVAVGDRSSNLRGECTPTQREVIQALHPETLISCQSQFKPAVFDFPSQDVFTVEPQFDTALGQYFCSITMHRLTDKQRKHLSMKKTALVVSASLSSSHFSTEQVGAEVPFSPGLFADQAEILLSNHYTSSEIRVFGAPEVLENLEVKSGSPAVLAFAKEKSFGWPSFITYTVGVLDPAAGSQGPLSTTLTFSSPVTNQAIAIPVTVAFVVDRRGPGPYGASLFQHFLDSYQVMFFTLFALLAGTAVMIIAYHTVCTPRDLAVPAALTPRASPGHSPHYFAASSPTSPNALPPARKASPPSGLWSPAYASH
UniProt P61970, whole entry, looked up: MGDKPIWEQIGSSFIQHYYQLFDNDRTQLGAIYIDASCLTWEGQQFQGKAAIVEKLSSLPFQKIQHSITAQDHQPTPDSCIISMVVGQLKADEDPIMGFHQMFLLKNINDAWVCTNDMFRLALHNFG
UniProt Q96RS6: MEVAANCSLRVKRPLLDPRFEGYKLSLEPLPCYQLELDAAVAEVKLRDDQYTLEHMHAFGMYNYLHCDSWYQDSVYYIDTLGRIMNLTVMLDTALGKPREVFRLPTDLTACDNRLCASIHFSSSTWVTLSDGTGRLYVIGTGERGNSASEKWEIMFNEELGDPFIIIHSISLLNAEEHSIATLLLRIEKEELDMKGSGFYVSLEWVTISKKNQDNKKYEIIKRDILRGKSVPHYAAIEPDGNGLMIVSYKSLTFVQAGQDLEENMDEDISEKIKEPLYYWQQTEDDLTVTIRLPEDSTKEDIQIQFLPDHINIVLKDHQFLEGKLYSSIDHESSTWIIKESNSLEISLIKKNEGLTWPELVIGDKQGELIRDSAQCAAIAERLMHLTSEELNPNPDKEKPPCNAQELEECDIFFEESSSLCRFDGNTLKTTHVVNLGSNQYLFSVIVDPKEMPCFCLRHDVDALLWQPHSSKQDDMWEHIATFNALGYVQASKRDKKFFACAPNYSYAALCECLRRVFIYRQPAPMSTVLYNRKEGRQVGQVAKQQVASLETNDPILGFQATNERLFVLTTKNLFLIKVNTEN
UniProt P49757: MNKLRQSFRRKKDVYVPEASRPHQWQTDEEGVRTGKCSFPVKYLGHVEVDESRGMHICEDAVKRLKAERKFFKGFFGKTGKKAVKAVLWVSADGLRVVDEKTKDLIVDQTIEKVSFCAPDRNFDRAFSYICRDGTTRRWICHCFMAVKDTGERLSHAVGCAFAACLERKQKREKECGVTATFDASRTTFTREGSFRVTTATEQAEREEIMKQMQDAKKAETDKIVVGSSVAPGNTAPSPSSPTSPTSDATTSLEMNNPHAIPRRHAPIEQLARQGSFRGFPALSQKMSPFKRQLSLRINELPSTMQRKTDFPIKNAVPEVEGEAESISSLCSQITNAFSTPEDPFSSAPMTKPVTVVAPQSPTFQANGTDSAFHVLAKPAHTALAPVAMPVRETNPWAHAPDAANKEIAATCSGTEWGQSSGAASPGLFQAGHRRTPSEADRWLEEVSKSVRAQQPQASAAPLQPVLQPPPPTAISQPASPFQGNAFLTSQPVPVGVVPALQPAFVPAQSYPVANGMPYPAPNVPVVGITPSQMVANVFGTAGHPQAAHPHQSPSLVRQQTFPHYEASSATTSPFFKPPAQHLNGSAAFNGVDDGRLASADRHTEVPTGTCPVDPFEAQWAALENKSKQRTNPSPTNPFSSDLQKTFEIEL
UniProt P78549: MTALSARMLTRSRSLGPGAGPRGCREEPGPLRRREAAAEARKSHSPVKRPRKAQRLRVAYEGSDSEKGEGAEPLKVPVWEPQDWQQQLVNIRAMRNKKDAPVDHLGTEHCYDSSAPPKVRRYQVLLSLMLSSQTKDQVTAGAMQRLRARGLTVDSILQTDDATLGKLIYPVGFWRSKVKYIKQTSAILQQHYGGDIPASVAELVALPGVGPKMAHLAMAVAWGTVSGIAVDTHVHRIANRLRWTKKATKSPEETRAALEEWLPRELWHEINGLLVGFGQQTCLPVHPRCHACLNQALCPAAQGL
UniProt Q9BV86: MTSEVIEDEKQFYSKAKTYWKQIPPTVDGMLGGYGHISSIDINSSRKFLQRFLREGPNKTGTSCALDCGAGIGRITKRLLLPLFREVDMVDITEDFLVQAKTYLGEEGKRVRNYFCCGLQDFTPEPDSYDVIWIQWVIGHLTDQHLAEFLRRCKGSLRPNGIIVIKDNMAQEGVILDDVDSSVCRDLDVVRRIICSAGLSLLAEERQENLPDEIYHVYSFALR
UniProt Q9BW91: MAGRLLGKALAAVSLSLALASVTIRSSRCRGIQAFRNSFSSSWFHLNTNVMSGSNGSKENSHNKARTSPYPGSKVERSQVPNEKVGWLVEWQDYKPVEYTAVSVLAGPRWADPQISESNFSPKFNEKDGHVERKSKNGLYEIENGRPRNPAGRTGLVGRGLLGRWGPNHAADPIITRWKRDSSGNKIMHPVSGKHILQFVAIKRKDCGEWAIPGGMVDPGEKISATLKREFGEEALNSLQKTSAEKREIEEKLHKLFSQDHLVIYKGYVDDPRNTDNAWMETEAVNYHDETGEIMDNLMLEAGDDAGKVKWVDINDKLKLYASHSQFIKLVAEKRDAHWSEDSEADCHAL
UniProt Q9Y5Y2: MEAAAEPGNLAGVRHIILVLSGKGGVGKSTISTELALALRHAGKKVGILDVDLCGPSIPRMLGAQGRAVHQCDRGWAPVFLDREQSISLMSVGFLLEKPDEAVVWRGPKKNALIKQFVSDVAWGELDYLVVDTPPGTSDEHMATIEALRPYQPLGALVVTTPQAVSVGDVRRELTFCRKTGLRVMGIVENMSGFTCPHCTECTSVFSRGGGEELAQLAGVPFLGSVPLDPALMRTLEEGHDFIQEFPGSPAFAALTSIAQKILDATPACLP
UniProt O75665: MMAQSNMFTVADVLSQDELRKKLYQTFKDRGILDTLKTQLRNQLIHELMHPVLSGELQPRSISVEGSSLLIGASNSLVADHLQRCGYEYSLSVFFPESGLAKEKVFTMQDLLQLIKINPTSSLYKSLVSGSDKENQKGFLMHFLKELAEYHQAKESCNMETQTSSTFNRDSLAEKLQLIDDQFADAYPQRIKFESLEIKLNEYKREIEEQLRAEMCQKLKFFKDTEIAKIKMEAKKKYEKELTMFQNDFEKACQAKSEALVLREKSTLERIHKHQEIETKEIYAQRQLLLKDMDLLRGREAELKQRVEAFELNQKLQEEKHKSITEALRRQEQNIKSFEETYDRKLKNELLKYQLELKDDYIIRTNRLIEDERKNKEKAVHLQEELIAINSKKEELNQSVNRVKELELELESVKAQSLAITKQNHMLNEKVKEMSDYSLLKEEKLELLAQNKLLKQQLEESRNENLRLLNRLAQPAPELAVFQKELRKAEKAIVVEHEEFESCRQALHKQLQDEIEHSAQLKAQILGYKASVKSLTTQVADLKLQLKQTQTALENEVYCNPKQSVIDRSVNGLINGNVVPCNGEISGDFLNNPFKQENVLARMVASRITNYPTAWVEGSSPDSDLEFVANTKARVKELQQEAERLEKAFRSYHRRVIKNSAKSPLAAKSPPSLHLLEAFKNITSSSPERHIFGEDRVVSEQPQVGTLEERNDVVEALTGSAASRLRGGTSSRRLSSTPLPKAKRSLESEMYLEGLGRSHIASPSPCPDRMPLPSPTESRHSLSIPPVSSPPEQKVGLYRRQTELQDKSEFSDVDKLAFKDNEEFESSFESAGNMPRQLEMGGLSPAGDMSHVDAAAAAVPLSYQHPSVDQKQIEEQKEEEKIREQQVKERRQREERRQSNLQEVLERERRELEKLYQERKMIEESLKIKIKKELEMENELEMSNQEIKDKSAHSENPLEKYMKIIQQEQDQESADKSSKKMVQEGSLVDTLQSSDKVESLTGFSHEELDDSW

These targets were tested with CC1Cc2ccccc2N1C(=O)C1CCCN(C1)C(=O)CCl (mixture of isomers) [TRIM25 ligand 11 (diastereomer mixture)] (assay: probe-labelled cysteine peptide fold change vs DMSO (competition) (log2 fold change); higher = less target engagement (more negative = stronger competition)). Conditions: 10 µM; THP-1; incubation time: 4 h.
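Also: competitive chemoproteomic profiling in live THP-1 cells with an iodoacetamide desthiobiotin (IA-DTB) probe, comparing probe-labelled peptide intensities in compound-treated cells against DMSO-treated controls.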

Target | probe-labelled cysteine peptide fold change
NUP50_Q9UKX7_428_NNVLIVCVPNPPIDEK (UniProt Q9UKX7) | 0.0521
NUP205_Q92621_1275_LLQCLHAK (UniProt Q92621) | 0.0677
NUP85_Q9BW27_230_EADASPASAGICR (UniProt Q9BW27) | -0.0499
NUBP1_P53384_235_VKLPIIGVVENMSGFICPK (UniProt P53384) | -0.377
NUP58_Q9BVL2_252_ALKDENLPPVICQDVENLQK (UniProt Q9BVL2) | -0.264
NUP210_Q8TEM1_1592_GECTPTQR (UniProt Q8TEM1) | 0.0853
ODR4_Q5SWX8_77_LDNLDEEWATEHACQVSR (UniProt Q5SWX8) | 0.21
NUTF2_P61970_80_IQHSITAQDHQPTPDSCIISMVVGQLK (UniProt P61970) | 0.00644
NUDCD1_Q96RS6_32_LSLEPLPCYQLELDAAVAEVK (UniProt Q96RS6) | 0.38
NUP37_Q8NFH4_149_EGQEIASVSDDHTCR (UniProt Q8NFH4) | 0.172
NT5DC2_Q9H857_475_FSDLYMASLSCLLNYR (UniProt Q9H857) | 0.0123
OAS2_P29728_361_CFLEQIDSAVNIIR (UniProt P29728) | 0.185
NUP155_O75694_974_CITDTLQELVNQSK (UniProt O75694) | -0.00767
OGFR_Q9NZT2_87_DCNGDTPNLSFYR (UniProt Q9NZT2) | -0.0357
OCRL_Q01968_611_LNDSQYCK (UniProt Q01968) | 0.0644
NUMB_P49757_160_LSHAVGCAFAACLER (UniProt P49757) | -0.143
OGFR_Q9NZT2_87_HNYPDLVERDCNGDTPNLSFYR (UniProt Q9NZT2) | -0.212
NTHL1_P78549_118_DAPVDHLGTEHCYDSSAPPK (UniProt P78549) | 0.0981
ODF2_Q5BJF6_708_TRECGTLAR (UniProt Q5BJF6) | 0.0159

Target | probe-labelled cysteine peptide fold change
NTMT1_Q9BV86_184_DNMAQEGVILDDVDSSVCR (UniProt Q9BV86) | -0.169
NT5DC1_Q5TFE4_63_ELLNVTPEDWDFCCK (UniProt Q5TFE4) | 0.0602
NXF1_Q9UBU9_373_LDGHELPPPIAFDVEAPTTLPPCK (UniProt Q9UBU9) | 0.0563
NUDT9_Q9BW91_347_RDAHWSEDSEADCHAL (UniProt Q9BW91) | 0.138
NUDT12_Q9BQG2_177_LCQLNYTDIK (UniProt Q9BQG2) | 0.246
NUMA1_Q14980_1907_NSFYMGTCQDEPEQLDDWNR (UniProt Q14980) | 0.235
NUP160_Q12769_292+303_GDQSPSDRPLSLAVHCVEHDAFIFALCQDHK (UniProt Q12769) | 0.115
NUMA1_Q14980-4_1729_PQLDLSIDSLDLSCEEGTPLSITR (UniProt Q14980) | -0.0732
NUP160_Q12769_931_ALECFCQAASEVGKEEFLDR (UniProt Q12769) | 0.13
NUBP2_Q9Y5Y2_269_ILDATPACLP (UniProt Q9Y5Y2) | 0.0519
NUMA1_Q14980_961_QFCSTQAALQAMER (UniProt Q14980) | -0.0793
NUP133_Q8WUM0_702_EVSQVDTICECLLEHEEQVLR (UniProt Q8WUM0) | 0.104
OAS1_P00973_25_FIEDYLLPDTCFR (UniProt P00973) | -0.0642
OFD1_O75665_157_ESCNMETQTSSTFNR (UniProt O75665) | -0.017
NUDCD1_Q96RS6_111_LPTDLTACDNR (UniProt Q96RS6) | 0.181
OCRL_Q01968_28_GPLREPCALTLAQR (UniProt Q01968) | -0.00867
NUP155_O75694_551_LHQEDQACATCLILACSTAACDREVSAWATR (UniProt O75694) | -0.126
NUMA1_Q14980_803_ELAEAMAAQHTAESECEQLVK (UniProt Q14980) | 0.093

Same assay, conditions: 50 µM; THP-1; incubation time: 4 h

Target | probe-labelled cysteine peptide fold change
NUP50_Q9UKX7_428_NNVLIVCVPNPPIDEK (UniProt Q9UKX7) | -0.0512
NUP205_Q92621_1275_LLQCLHAK (UniProt Q92621) | 0.0658
NUP85_Q9BW27_230_EADASPASAGICR (UniProt Q9BW27) | 0.00531
NUBP1_P53384_235_VKLPIIGVVENMSGFICPK (UniProt P53384) | -0.0216
NUP58_Q9BVL2_252_ALKDENLPPVICQDVENLQK (UniProt Q9BVL2) | -0.411
NUP210_Q8TEM1_1592_GECTPTQR (UniProt Q8TEM1) | 0.177
ODR4_Q5SWX8_77_LDNLDEEWATEHACQVSR (UniProt Q5SWX8) | -0.0829
NUTF2_P61970_80_IQHSITAQDHQPTPDSCIISMVVGQLK (UniProt P61970) | -0.0494
NUDCD1_Q96RS6_32_LSLEPLPCYQLELDAAVAEVK (UniProt Q96RS6) | 0.116
NUP37_Q8NFH4_149_EGQEIASVSDDHTCR (UniProt Q8NFH4) | 0.196
NT5DC2_Q9H857_475_FSDLYMASLSCLLNYR (UniProt Q9H857) | 0.0662
OAS2_P29728_361_CFLEQIDSAVNIIR (UniProt P29728) | 0.131
NUP155_O75694_974_CITDTLQELVNQSK (UniProt O75694) | -0.149
OGFR_Q9NZT2_87_DCNGDTPNLSFYR (UniProt Q9NZT2) | -0.0979
OCRL_Q01968_611_LNDSQYCK (UniProt Q01968) | 0.0168
NUMB_P49757_160_LSHAVGCAFAACLER (UniProt P49757) | 0.0504
OGFR_Q9NZT2_87_HNYPDLVERDCNGDTPNLSFYR (UniProt Q9NZT2) | -0.337
NTHL1_P78549_118_DAPVDHLGTEHCYDSSAPPK (UniProt P78549) | 0.0312
ODF2_Q5BJF6_708_TRECGTLAR (UniProt Q5BJF6) | 0.317

Target | probe-labelled cysteine peptide fold change
NTMT1_Q9BV86_184_DNMAQEGVILDDVDSSVCR (UniProt Q9BV86) | 0.0162
NT5DC1_Q5TFE4_63_ELLNVTPEDWDFCCK (UniProt Q5TFE4) | 0.194
NXF1_Q9UBU9_373_LDGHELPPPIAFDVEAPTTLPPCK (UniProt Q9UBU9) | -0.0988
NUDT9_Q9BW91_347_RDAHWSEDSEADCHAL (UniProt Q9BW91) | -0.0487
NUDT12_Q9BQG2_177_LCQLNYTDIK (UniProt Q9BQG2) | 0.189
NUMA1_Q14980_1907_NSFYMGTCQDEPEQLDDWNR (UniProt Q14980) | 0.0678
NUP160_Q12769_292+303_GDQSPSDRPLSLAVHCVEHDAFIFALCQDHK (UniProt Q12769) | 0.203
NUMA1_Q14980-4_1729_PQLDLSIDSLDLSCEEGTPLSITR (UniProt Q14980) | 0.0128
NUP160_Q12769_931_ALECFCQAASEVGKEEFLDR (UniProt Q12769) | 0.0495
NUBP2_Q9Y5Y2_269_ILDATPACLP (UniProt Q9Y5Y2) | -0.094
NUMA1_Q14980_961_QFCSTQAALQAMER (UniProt Q14980) | -0.218
NUP133_Q8WUM0_702_EVSQVDTICECLLEHEEQVLR (UniProt Q8WUM0) | 0.265
OAS1_P00973_25_FIEDYLLPDTCFR (UniProt P00973) | -0.115
OFD1_O75665_157_ESCNMETQTSSTFNR (UniProt O75665) | -0.197
NUDCD1_Q96RS6_111_LPTDLTACDNR (UniProt Q96RS6) | 0.22
OCRL_Q01968_28_GPLREPCALTLAQR (UniProt Q01968) | 0.0595
NUP155_O75694_551_LHQEDQACATCLILACSTAACDREVSAWATR (UniProt O75694) | -0.0532
NUMA1_Q14980_803_ELAEAMAAQHTAESECEQLVK (UniProt Q14980) | 0.0727
